PubChem BioAssay AID1224828 | NIAID, 2016

Screen: 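Regulators linking TLR4 signalling to p65 nuclear translocation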 (primary screen)
System: mouse RAW264.7 G9 macrophage reporter cells (GFP-p65, Tnf promoter-mCherry)
Reagents: siRNA pool against mouse genes, 100 nM
Timing: 2 days siRNA transfection, then 40 min LPS before fixation
Treatment: LPS (Salmonella minnesota R595) at 10 ng/ml
Detection: 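Imaged p65 nuclear translocation ratio, normalised to the plate median, converted to robust z-scores and averaged across two replicates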
Reading the numbers: p65 translocation robust z-score: higher = more nuclear NF-kappaB p65 after LPS than the plate median; nuclear/cytoplasmic p65 ratio: higher = more nuclear NF-kappaB p65
Rule for the call: 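Called active when z exceeds 3.3 or falls under -1.56 (median of Tlr4 controls), giving activity score of at least 50; no calls for control wells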
Calls: active = hit (p65 shift raised or lowered); inactive = no clear change
Shown is one part, drawn at random, of about 17,000 reagents tested. 762 of them (4.5%) count as active. 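Active calls include both raised and lowered p65 entry, mostly lowered; wells with fewer than 50 cells lack a z-score.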 Raw values are not corrected between plates. A reagent listed more than once was tested more than once; the source does not tell the runs apart.

Target gene	PubChem SID	p65 translocation robust z-score	nuclear/cytoplasmic p65 ratio, rep 1	nuclear/cytoplasmic p65 ratio, rep 2	low cell count flag	call
Foxk2	SID315473649	-0.05	1.57	1.65	enough cells to score	inactive
Tas2r105	SID315471727	1.91	1.61	1.23	enough cells to score	inactive
Atp6v0a1	SID315465566	-0.18	1.49	1.57	enough cells to score	inactive
Gfi1b	SID315466883	-1.8	1.15	1.16	enough cells to score	active
Pramel6	SID315481689	-0.52	1.32	1.15	enough cells to score	inactive
V1rb6 (retired record)	SID315476643	0.32	1.42	1.27	enough cells to score	inactive
Ubn2	SID315481334	-1.08	1.39	1.64	enough cells to score	inactive
1700010H22Rik	SID315475134		1.54	1.44	fewer than 50 cells per well; well left out of scoring	inactive
Or3a1	SID315480354	-1.34	1.32	1.4	enough cells to score	inactive
Csnk2a2	SID315466171	-1.28	1.55	1.17	enough cells to score	inactive
Apln	SID315470759	0.29	1.55	1.64	enough cells to score	inactive
Igfn1	SID315478501	-0.53	1.31	1.52	enough cells to score	inactive
Acp6	SID315472569	0.46	1.74	1.64	enough cells to score	inactive
9230112E08Rik	SID315481398	0.73	1.53	1.64	enough cells to score	inactive
9230112E08Rik	SID315481398	-0.25	1.42	1.48	enough cells to score	inactive
Kcnab1	SID315467565	-1.41	1.28	1.09	enough cells to score	inactive
Ibsp	SID315467359	0.32	1.4	1.49	enough cells to score	inactive
Fsd1	SID315479487	-2.38	1.31	1.23	enough cells to score	active
Pfpl	SID315471372	-0.65	1.29	1.22	enough cells to score	inactive
Actn3	SID315465274	-0.52	1.6	1.49	enough cells to score	inactive
St3gal5	SID315469248	0.3	1.62	1.57	enough cells to score	inactive
St3gal1	SID315469236	-1.16	1.39	1.38	enough cells to score	inactive
Cldn16	SID315476997	-0.63	1.43	1.3	enough cells to score	inactive
Sipa1l3	SID315474909		1.42	1.48	fewer than 50 cells per well; well left out of scoring	inactive
Myod1	SID315468083	0.24	1.48	1.37	enough cells to score	inactive
Mmgt2	SID315478036	-0.01	1.59	1.83	enough cells to score	inactive
AU014748	SID315482026	0.89	1.55	1.82	enough cells to score	inactive
Ces2g	SID315474530	-0.01	1.25	1.41	enough cells to score	inactive
Sgta	SID315470977	0.24	1.53	1.2	enough cells to score	inactive
Glis2	SID315475811	-0.24	1.37	1.37	enough cells to score	inactive
Cpm	SID315474087	-0.77	1.39	1.6	enough cells to score	inactive
Atic	SID315476704	0.6	1.71	1.69	enough cells to score	inactive
Btrc	SID315465684	-0.76	1.56	1.45	enough cells to score	inactive
A430072C10Rik	SID315481138		1.54	1.74	fewer than 50 cells per well; well left out of scoring	inactive
Hand1	SID315467140	0.05	1.27	1.4	enough cells to score	inactive
Psma3	SID315468737	-1.3	1.21	1.18	enough cells to score	inactive
Klra7	SID315467667	0.46	1.51	1.47	enough cells to score	inactive
Evc2	SID315473557	-0.82	1.33	1.28	enough cells to score	inactive
Or5p80	SID315480417		1.49	1.29	fewer than 50 cells per well; well left out of scoring	inactive
Map3k19	SID315470075	1.11	1.67	1.51	enough cells to score	inactive

Part of the list above, set out differently:
Target gene,PubChem SID,p65 translocation robust z-score,"nuclear/cytoplasmic p65 ratio, rep 1","nuclear/cytoplasmic p65 ratio, rep 2",low cell count flag,call
Mmgt2,SID315478036,-0.01,1.59,1.83,enough cells to score,inactive
AU014748,SID315482026,0.89,1.55,1.82,enough cells to score,inactive
Ces2g,SID315474530,-0.01,1.25,1.41,enough cells to score,inactive
Sgta,SID315470977,0.24,1.53,1.2,enough cells to score,inactive
Glis2,SID315475811,-0.24,1.37,1.37,enough cells to score,inactive
